Reference: patent US9738902B2, “Modified PYR/PYL receptors activated by ligands” (priority 2013, dated 2017)

System: MDP1 transgenic plants expressing PYR1^MANDI
Test: RNASeq genome-wide gene expression
Format: in vivo, Arabidopsis
Settings: 2 μM mandipropamid vs 50 μM ABA

C#CCOc1ccc(CCNC(=O)C(OCC#C)c2ccc(Cl)cc2)cc1OC (stereo not shown) [Mandipropamid, mandipropamid]
correlation r of mandipropamid response with ABA response (genome-wide): 0.90
